{
  "sequences": {"note": "Protein sequences, listed by entry. Tags and fused reporters are not part of them. Lines headed by an entry give the natural chain unless they say otherwise; changes in a name come on top.", "UniProt P18054": "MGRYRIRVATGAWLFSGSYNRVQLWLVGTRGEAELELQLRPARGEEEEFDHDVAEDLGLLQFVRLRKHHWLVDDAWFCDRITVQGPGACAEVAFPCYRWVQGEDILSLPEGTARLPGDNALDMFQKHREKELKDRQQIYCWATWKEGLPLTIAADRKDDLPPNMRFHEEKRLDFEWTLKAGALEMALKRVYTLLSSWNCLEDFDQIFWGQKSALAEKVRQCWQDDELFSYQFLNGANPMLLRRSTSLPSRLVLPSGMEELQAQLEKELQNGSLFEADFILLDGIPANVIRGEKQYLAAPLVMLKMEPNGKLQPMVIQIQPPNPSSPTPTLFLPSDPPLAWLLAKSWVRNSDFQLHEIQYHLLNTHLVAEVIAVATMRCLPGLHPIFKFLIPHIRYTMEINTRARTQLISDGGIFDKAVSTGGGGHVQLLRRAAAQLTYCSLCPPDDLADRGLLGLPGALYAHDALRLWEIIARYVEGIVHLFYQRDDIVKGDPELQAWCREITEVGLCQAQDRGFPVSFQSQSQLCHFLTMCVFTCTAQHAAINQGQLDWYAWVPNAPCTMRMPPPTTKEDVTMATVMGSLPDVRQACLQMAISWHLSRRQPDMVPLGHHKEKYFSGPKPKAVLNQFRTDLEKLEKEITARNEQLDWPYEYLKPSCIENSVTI"},
  "source": "PubChem BioAssay AID1671190",
  "about": "(National Center for Advancing Translational Sciences (NCATS), 2021)",
  "note": "The whole screen tested about 580,000 compounds, of which about 6,100 (1.1%) were called active. This list was built around the results that the source calls inconclusive (neither active nor inactive); the mix of calls is not that of the screen. Calls follow the shape of the dose curve; as a rule, active = well fitted inhibition curve with a large enough effect; inconclusive = small, poorly fitted or top-dose-only effect, or another doubt; inactive = no such curve, though single readings can be large or run the other way. Potencies of inconclusive entries are doubtful fits and often do not repeat. % is scaled to controls: 0 for no effect and ±100 for the full control effect; potency is read from the fitted curve at half-maximal effect.",
  "data": [
    {"biological_target": "Polyunsaturated fatty acid lipoxygenase ALOX12 (Homo sapiens) (UniProt P18054)", "test": "Primary qHTS assay for inhibitors of human arachidonate 12S-lipoxygenase (ALOX12): Round 2", "conditions": "purified 12hLO, xylenol orange hydroperoxide absorbance; activity change, negative = inhibition: at 108 µM (top of the series) unless noted", "how_it_was_run": "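Hydroperoxide product was detected by ferrous iron/xylenol orange as the 573 to 405 nm absorbance ratio. Arachidonic acid at 40 uM (final) was turned over for 30 min at room temperature by 150 nM human 12hLO, pH 7.0 Hepes buffer, after 15 min compound preincubation.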", "values": [
      {"smiles": "CCC(CC)C(C(=O)NC1CCCCC1)N1C(=O)C(=O)c2ccccc21", "note": "(configuration not stated)", "Potency": "inconclusive: 20 µM [inhibitor, partial curve, poor fit]"},
      {"smiles": "COc1ccc(-c2nn(-c3ccccc3)cc2/C=N/Nc2ccc3ccccc3n2)cc1OC", "Potency": "inconclusive: 141 µM [inhibitor, single point]"},
      {"smiles": "CCC(=O)Nc1ccc(C(=O)CSc2nnc(-c3ccc(NS(=O)(=O)CC)cc3)o2)cc1OC", "Potency": "inactive"},
      {"smiles": "COc1ccc(-n2c(COc3cccc4ccccc34)nnc2SC(C)C(=O)O)cc1", "note": "(configuration not stated)", "Potency": "inconclusive: 17.8 µM [inhibitor, partial curve, poor fit]"},
      {"smiles": "COc1ccc(C(CNC(=O)c2oc3ccc(Cl)cc3c2C)N2CCCCC2)cc1", "note": "(configuration not stated)", "Potency": "inconclusive: 56.2 µM [inhibitor, partial curve, poor fit]"},
      {"smiles": "O=C(NCCc1ccc(OC(F)F)cc1)C1CC(=O)N(c2ccc3c(c2)OCCO3)C1", "note": "(configuration not stated)", "Potency": "inconclusive: 44.7 µM [inhibitor, partial curve, poor fit]"},
      {"smiles": "O=C1NC(c2ccncc2)Nc2ccccc21", "note": "(configuration not stated)", "Potency": "inactive"},
      {"smiles": "Cc1ccc(NC(=O)COC(=O)Cc2c[nH]c3ccccc23)cc1F", "Potency": "inconclusive: 70.8 µM [inhibitor, partial curve, poor fit]"},
      {"smiles": "O=C(c1cc(Cl)ccc1F)N1CCN(Cc2nnnn2C2CC2)CC1", "activity change, negative = inhibition": "inconclusive: -30.4% [inhibitor]"},
      {"smiles": "COc1ccc(C(=O)N2CCCC2(C)C(=O)O)cc1C(F)(F)F", "note": "(configuration not stated)", "Potency": "inactive"},
      {"smiles": "O=S(=O)(Nc1ccccc1)c1ccc(NS(=O)(=O)c2c(F)cccc2F)cc1", "Potency": "inconclusive: 100 µM [inhibitor, single point]"},
      {"smiles": "CC(=O)NC(C)C(=O)NC(C)c1ccc(Cl)cc1", "note": "(configuration not stated)", "Potency": "inactive"},
      {"smiles": "COCCNc1nnc(SCC(=O)Nc2cc(-c3ccccc3)nn2-c2ccccc2)s1", "Potency": "inactive"},
      {"smiles": "O=C1NCCCCCCN(S(=O)(=O)c2ccccc2)[C@H]2C[C@H](c3nc(-c4cccnc4)no3)C[C@@H]12", "Potency": "inactive"},
      {"smiles": "CCNC(=O)COC(=O)c1cc(-c2ccc(C)o2)nc2ccccc12", "Potency": "inconclusive: 15.8 µM [inhibitor, partial curve, poor fit]"},
      {"smiles": "Cc1nn(Cc2ccccc2)c(C)c1CNC(=O)CN=C1NS(=O)(=O)c2ccccc21", "Potency": "inconclusive: 2 µM [inhibitor, full curve, poor fit]"},
      {"smiles": "CC(=O)Nc1ccc(CN2CCCC(c3nc4ccc(F)cc4c(=O)[nH]3)C2)cc1", "note": "(configuration not stated)", "Potency": "inconclusive: 17.8 µM [inhibitor, full curve]"},
      {"smiles": "Cc1cc(Nc2ccc3c(c2)OCCO3)c2cc(Cl)ccc2n1", "Potency": "inactive"},
      {"smiles": "O=C(O)CCCC(=O)Nc1ccc(-c2nc3ccccc3o2)cc1", "Potency": "inactive"},
      {"smiles": "Cc1cc(C)c2nc(-c3ccccn3)cc(C(=O)NCc3ccc(S(N)(=O)=O)cc3)c2c1", "Potency": "inactive"},
      {"smiles": "S=c1[nH]nc(C2CCCCC2)n1/N=C/c1cccc(Cl)c1Cl", "Potency": "inconclusive: 44.7 µM [inhibitor, partial curve, poor fit]"},
      {"smiles": "CCOc1cc(C(=O)Nc2ccc(N3CCOCC3)cc2)cc(Br)c1OC", "Potency": "inactive"},
      {"smiles": "O=C(CSc1ncnc2ccccc12)Nc1cccc2ccccc12", "Potency": "inactive"},
      {"smiles": "Cc1cccc(N(CC(=O)NCCc2ccccc2)C(=O)CCC(=O)Nc2ccccn2)c1C", "Potency": "inconclusive: 2 µM [inhibitor, full curve, poor fit]"},
      {"smiles": "O=C(CSc1cn(CC(=O)N2CCCC2)c2ccccc12)Nc1cccc(C(F)(F)F)c1", "Potency": "inconclusive: 112 µM [inhibitor, single point]"},
      {"smiles": "CCOC(=O)C1Cn2c(nc3c(c2=O)C(C)(C)Cc2ccccc2-3)S1", "note": "(configuration not stated)", "Potency": "inconclusive: 56.2 µM [inhibitor, partial curve, poor fit]"},
      {"smiles": "CCOC(=O)CN(CC(=O)NC(=O)NC)CC(C)C", "Potency": "inconclusive: 89.1 µM [inhibitor, single point]"},
      {"smiles": "CN(Cc1ccco1)c1nc(-c2ccc3c(c2)OCO3)nc2ccccc12", "Potency": "inconclusive: 8.91 µM [inhibitor, full curve]"},
      {"smiles": "COc1ccc(CN2CCNC(=O)C2CC(=O)NC2CCC2)c(OC)c1", "note": "(configuration not stated)", "Potency": "inconclusive: 35.5 µM [inhibitor, single point]"},
      {"smiles": "CCN1CCN(c2nc3c(S(=O)(=O)c4ccc(Br)cc4)nnn3c3ccsc23)CC1", "Potency": "inconclusive: 56.2 µM [inhibitor, partial curve, poor fit]"},
      {"smiles": "C=CCN(C)CC/C=C1\\c2ccccc2CSc2ccccc21", "Potency": "inconclusive: 31.6 µM [inhibitor, single point]"},
      {"smiles": "CCC(NC(=O)/C(=C\\c1ccccc1)NC(=O)c1ccc(C)cc1)C(=O)O", "note": "(configuration not stated)", "Potency": "inconclusive: 4.47 µM [inhibitor, full curve, poor fit]"},
      {"smiles": "Cc1cccc(N2CCN(c3nc4ccccc4nc3C(=O)OC(C)C)CC2)c1C", "Potency": "inconclusive: 100 µM [inhibitor, single point]"},
      {"smiles": "CCc1ccc(-c2csc3[n+]2CCN3C(C)=O)cc1", "Potency": "inconclusive: 7.94 µM [inhibitor, full curve, poor fit]"},
      {"smiles": "c1coc(-c2nc3ccccc3s2)c1", "Potency": "inconclusive: 56.2 µM [inhibitor, partial curve, poor fit]"},
      {"smiles": "COc1ccc(Nc2nc(-c3ccc(C)cc3)nc3ccccc23)c(OC)c1", "Potency": "inactive"},
      {"smiles": "O=C(NC(Cc1ccccc1)C(=O)O)/C(=C\\c1ccc(Cl)cc1)NC(=O)c1ccccc1", "note": "(configuration not stated)", "Potency": "inconclusive: 126 µM [inhibitor, partial curve, poor fit]"},
      {"smiles": "Cn1c(CNc2ccc(F)cc2)nc2ccccc21", "Potency": "inconclusive: 4.47 µM [inhibitor, full curve, poor fit]"},
      {"smiles": "O=C(c1c(F)cccc1F)N1CCCC(c2nc(-c3cccs3)no2)C1", "note": "(configuration not stated)", "Potency": "inactive"},
      {"smiles": "Cc1ccc(S(=O)(=O)Nc2ccc3c(c2)C(=O)c2ccccc2-3)cc1", "Potency": "inconclusive: 44.7 µM [inhibitor, partial curve]"},
      {"smiles": "O=C1OC(c2ccc(Cl)cc2)/C(=C(/O)c2ccccc2)C1=O", "note": "(configuration not stated)", "Potency": "inconclusive: 31.6 µM [inhibitor, partial curve]"},
      {"smiles": "CCOC(=O)C(Sc1cc(C)nc(N)n1)C(C)=O", "note": "(configuration not stated)", "Potency": "inconclusive: 44.7 µM [inhibitor, partial curve, poor fit]"}
    ]}
  ]
}
